# According to PubChem BioAssay AID2685 (National Center for Advancing Translational Sciences (NCATS), 2010):
# The list shows a part of the results. Shown are side measurements of this screen, not its main read-out; they come without a call. Compounds called inactive in the main read-out are mostly missing here. Potencies come from curve fits of mixed quality, noted in brackets.
# Assay: qHTS Assay for Lipid Storage Modulators in Drosophila S3 Cells;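 for cell number change: cells counted by Cell Tracker Red CMTPX staining in the red channel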
# Conditions: BODIPY lipid droplet fluorescence, 18-24 h; for cell number change: measured here: cell count max response, cells fed with added oleic acid
# Outline: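 Drosophila S3 cells got compounds at several concentrations plus oleic acid (400 uM solution). Laser-scanning cytometry with 488 nm excitation read lipid droplets at 500-530 nm and cells at 575-640 nm. Percent activity was relative to 20 uM Triacsin C.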
# [1] = measured here: cell number channel AC50, cells fed with added oleic acid
# [2] = measured here: lipid fluorescence (Fed channel) AC50, cells fed with added oleic acid
Structure (SMILES),cell number change [%],AC50 [1],AC50 [2]
COc1ccc(NC(=O)CN(C)C(=O)CCc2c[nH]c3ccccc23)cc1,20.5,,
Cc1ccsc1/C=C/C1=Cc2c(sc(NC(=O)CSc3n[nH]c(N)n3)c2C#N)C(C)(C)C1,461,"20.6 µM [rising, partial curve]","18.4 µM [rising, partial curve]"
Cc1cccc(/C=N/n2c(C3CCCCC3)n[nH]c2=S)c1,-49.7,"10.3 µM [falling, partial curve]","13 µM [falling, partial curve]"
Cc1nc2sc(C#N)c(N)c2c2c1CCCC2,41.3,"23.1 µM [rising, single point]",
COc1ccc2c(C)cc(=O)oc2c1C,-6.5,"1.46 µM [rising, partial curve]","1.46 µM [rising, partial curve]"
O=C(Nc1ccccc1)c1ccc(N2CCN(c3ccccc3)CC2)c(S(=O)(=O)N2CCOCC2)c1,27.4,"0.0326 µM [rising, full curve, poor fit]","5.8 µM [rising, single point]"
O=C1c2ccccc2-c2nc3ccccc3nc21,,"2.06 µM [rising, partial curve, poor fit]","2.91 µM [rising, full curve]"
COc1cccc(N(C(=O)c2sc(C)nc2C)C(C(=O)NCC2CCCO2)c2ccccc2)c1 (stereo unspecified),15.8,,
O=C(/C=C/c1ccc(F)cc1)NC(=S)N1CCN(Cc2ccccc2)CC1,17.1,"6.51 µM [rising, single point]","6.51 µM [rising, single point]"
O=C(COC(=O)Cc1c[nH]c2ccccc12)NCCc1ccccc1,-22.5,,
CCN1CCCC1CNS(=O)(=O)c1cccc(C(F)(F)F)c1 (stereo unspecified),10.9,,"6.51 µM [falling, partial curve]"
NNC(=O)c1cc(S(=O)(=O)N2CCOCC2)c[nH]1,-2.8,,
Cn1c(SCc2ccc(C(=O)Nc3nccs3)cc2)nnc1-c1ccccc1,13.2,,
c1ccc(-c2ncc(-c3ccn[nH]3)s2)cc1,-36.4,"32.6 µM [falling, single point]","0.411 µM [rising, partial curve, poor fit]"
CCOc1ccccc1C(=O)NC(CO)C(=O)O (stereo unspecified),,,"29.1 µM [falling, single point]"
O=C(Oc1coc(CSc2ncccn2)cc1=O)c1ccco1,-36,"2.31 µM [falling, partial curve, poor fit]","0.206 µM [falling, full curve, poor fit]"
Cc1csc(NC(=O)c2c(-c3c(Cl)cccc3Cl)noc2C)n1,41.9,"1.84 µM [rising, full curve]",
COc1ccc(Cn2c(=N)c(C(=O)NCC3CCCO3)cc3c(=O)n4ccccc4nc32)cc1 (stereo unspecified),11,,
CCOC(=O)C1=C(C)NC(C)=C(C(=O)OCC)C1C(=O)OCC(=O)N1CCCCC1CC (stereo unspecified),15,,"6.51 µM [rising, single point]"
c1ccc(-c2csc(-c3ccc(-c4csnn4)cc3)n2)cc1,-22.3,,"29.1 µM [falling, single point]"
CC1CN(C(=O)CCC(=O)N2CCN(c3ccccn3)CC2)c2ccccc2O1 (stereo unspecified),-13,,
CCCC(CCC)C(=O)Nc1cccc(C(=O)O)c1,5.18,,"29.1 µM [rising, single point]"

Structure (SMILES),cell number change [%],AC50 [1],AC50 [2]
O=C(CSc1ccccc1)Nc1ccc(NC(=O)c2ccco2)cc1,14.4,,
C#CCOc1ccc(/C=C2/C(=O)ON=C2C)cc1Br,-9.93,,"29.1 µM [falling, single point]"
CN(C)S(=O)(=O)c1ccc(C(=O)OCc2nnc(-c3ccccc3)o2)cc1,-12.4,,
Nc1nc(SCC(=O)NNc2c(Cl)cc(Cl)cc2Cl)n[nH]1,1.04,"1.84 µM [falling, partial curve]",
Cn1c(NCCCN2CCOCC2)nc2c1c(=O)n(Cc1ccc(Cl)c(Cl)c1)c(=O)n2C,16.1,,
C=CCN1C(=NC(=O)CC)SC2CS(=O)(=O)CC21 (stereo unspecified),35.6,"4.11 µM [rising, partial curve]",
Cc1ccc(-n2c(SCC(=O)N3CCCc4ccccc43)nnc2-c2cccnc2)c(C)c1,6.05,,
COc1ccc(OC)c(CN2CCN(CC(=O)Nc3ccccc3C(=O)NC3CC3)CC2)c1,5.97,,"29.1 µM [rising, single point]"
CC(=O)Nc1ccc(NC(=O)C(C)OC(=O)CCCN=C2NS(=O)(=O)c3ccccc32)cc1 (stereo unspecified),50,"29.1 µM [rising, single point]",
O=C1CC(c2cccs2)Cc2nc(NCC3CCCO3)ncc21 (stereo unspecified),46.9,"0.731 µM [rising, full curve]","1.16 µM [rising, single point]"
COC(=O)c1cc(-c2ccc(Br)cc2)n[nH]1,,,"0.651 µM [falling, single point]"
CCOc1ccc(NC(=O)CNS(=O)(=O)c2c(C)cc(C)cc2C)cc1,,,"0.82 µM [falling, full curve]"
CCOc1ccccc1Nc1cc(C)c2cccc(C)c2n1,21.4,,"29.1 µM [falling, single point]"
CCOC(=O)c1ccc2[nH]c3c(c2c1)CCCC3C(=O)OCC (stereo unspecified),-4.03,"2.31 µM [rising, partial curve, poor fit]",
S=c1[nH]c2cc3c(cc2[nH]1)OCCO3,-11.1,,
CC(OC(=O)c1ccccc1C(=O)N(C)C1CCCCC1)C(=O)NC1(C#N)CCCCC1 (stereo unspecified),-3.85,,
CC(=O)c1ccc(N2CCN(C(=O)c3ccc(-c4ccccc4)cc3)CC2)cc1,4.44,"0.058 µM [rising, full curve, poor fit]",
N#C/C(=C\c1c(N2CCCCCC2)nc2ccccn2c1=O)C(=O)NCc1ccco1,17.4,,"1.03 µM [rising, partial curve]"
CCOc1cc(Cl)c(S(=O)(=O)NCc2ccccn2)cc1Cl,-15.7,,"6.51 µM [falling, single point]"
O=C(NCCN1CCN(Cc2ccccc2)CC1)c1cc2c(=O)[nH]c3ccccc3c2s1,1.13,,"9.2 µM [rising, partial curve]"
C/C(CC(=O)Nc1ccc(Cl)cc1Cl)=N\NC(N)=S,-18.7,,"16.4 µM [falling, partial curve, poor fit]"
COc1ccc(-c2nn(-c3ccccc3)cc2CNC(=O)c2cccc([N+](=O)[O-])c2)cc1,-27.1,,

# Entries listed so far that have bromine, in the order listed:
Structure (SMILES),cell number change [%],AC50 [1],AC50 [2]
C#CCOc1ccc(/C=C2/C(=O)ON=C2C)cc1Br,-9.93,,"29.1 µM [falling, single point]"
COC(=O)c1cc(-c2ccc(Br)cc2)n[nH]1,,,"0.651 µM [falling, single point]"

# Some entries already given, reduced to AC50 [1]:
Structure (SMILES)	AC50 [1]
CC(=O)Nc1ccc(NC(=O)C(C)OC(=O)CCCN=C2NS(=O)(=O)c3ccccc32)cc1 (stereo unspecified)	29.1 µM [rising, single point]
O=C1CC(c2cccs2)Cc2nc(NCC3CCCO3)ncc21 (stereo unspecified)	0.731 µM [rising, full curve]

# Next entries follow.

Structure (SMILES),cell number change [%],AC50 [1],AC50 [2]
Cc1cc(C(=O)CCC(=O)N2CCN(c3ccccc3F)CC2)c(C)s1,19.6,,"5.8 µM [rising, single point]"
CCCCCCc1cc2cc(C(=O)NCc3ccccc3)c(=N)oc2cc1O,-49,"14.6 µM [falling, partial curve]","13 µM [falling, partial curve]"
COc1ccc(CN2C(=O)c3ccccc3C2=O)cc1C(=O)Nc1ccccc1N1CCOCC1,28.4,"6.51 µM [rising, single point]",
COC(=O)c1c(NC(=O)Cc2cccs2)sc(C(=O)N2CCCCC2)c1C,-25,,"32.6 µM [falling, single point]"
COc1cc(OC)cc(C(=O)NNC(=S)NC2CC2)c1,17.6,,"0.092 µM [rising, full curve, poor fit]"
COc1cc(/C(C)=N\NC(=O)CSc2nc3ccccc3n2C)ccc1O,8.19,,
CC(=O)N1CCc2cc(S(=O)(=O)NCCC(=O)NC3CCCCCC3)ccc21,-11.8,,"20.6 µM [rising, single point]"
COc1ccc(NC(=O)N2c3ccccc3CC2C)cc1OC (stereo unspecified),18.7,,
COc1ccc(C2NC(=O)NC(C)=C2C(=O)OC2CCCC(C)C2)cc1 (stereo unspecified),-12.4,,
O=C(CCSCCc1ccccn1)Nc1ccccn1,30.2,"23.1 µM [rising, partial curve, poor fit]",
CCN(C1CCCCC1)S(=O)(=O)c1ccc(OC)c(C)c1,-0.312,,
Cn1c(CNC(=O)CNC(=O)Cc2ccc(F)cc2)cc(=O)n(C)c1=O,20,,
O=C(c1cc(COc2ccc3ncccc3c2)on1)N1CCCC1,,,"4.61 µM [falling, partial curve]"
CC(C)(C)NC(=O)C(c1cccs1)N(Cc1cccs1)C(=O)c1ccc(CN2CCOCC2)o1 (stereo unspecified),19.1,,"4.11 µM [rising, full curve]"
COc1ccc(S(=O)(=O)Cc2ccc(C(=O)NC3CC3)o2)cc1,49.6,"3.66 µM [rising, single point]","23.1 µM [rising, partial curve]"
COc1ccc(OCc2nc(N)nc(Nc3ccccc3)n2)cc1,70.3,"2.31 µM [rising, full curve]","4.61 µM [rising, full curve]"
O=c1c2c(nc3nc(NCc4ccccc4Cl)[nH]n13)CCC2,,"6.51 µM [rising, single point]",
CCCCC(Sc1nc(N)c(NC(=O)c2ccc(OCC)cc2)c(=O)[nH]1)C(=O)O (stereo unspecified),-12,"0.103 µM [falling, full curve, poor fit]","0.13 µM [falling, full curve, poor fit]"
Cc1cc(C)cc(C(=O)N2CCCCCC2)c1,21.3,,"0.206 µM [rising, full curve, poor fit]"
CO/N=C/NC(=O)c1c(OC)ccnc1Oc1ccc(Cl)cc1,20.4,,"23.1 µM [rising, single point]"
